Here are results for 62 compounds from PubChem BioAssay AID493014 (National Center for Advancing Translational Sciences (NCATS), 2011).

The AC50 is the concentration giving half of the maximal activity seen.

This is one part of the list. These are further read-outs of the screen, such as a control signal, another cell line or another target. No call is given for them. Most of these compounds were active or inconclusive in the main read-out, so they are no random draw. Potencies come from curve fits of mixed quality, noted in brackets.

This assay is described as follows: qHTS Assay to Find Inhibitors of Chronic Active B-Cell Receptor Signaling. The note with it: ABC-DLBCL IkBa-CBG/CBR reporter, luminescence ratio (green luciferase fused to IkBa over red control in TMD8 lymphoma cells), 4 h. In a few lines:
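Compounds up to 46 uM were incubated four hours with TMD8 cells whose green CBG68 luciferase is fused to IkappaBalpha; red CBR luminescence normalised the signal, and concentration-effect curves were fitted to fusion, red and ratio data.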
A general note: qHTS replaces the single test concentration by a dilution series.

Setting [1] is: measured here: CBR red luminescence, cell number.
Setting [2] is: measured here: IkBa-CBG green luminescence.

As for `CCc1nnc2c3cnn(-c4ccccc4)c3ncn12`, the AC50 under setting [1] was 29.1 µM [falling, single point].
For `O=C1c2ccccc2N2C(=O)c3ccccc3C2N1Cc1ccccc1` (configuration not stated), the AC50 under setting [1] is 10 µM [falling, partial curve].
On the same count and under the same terms, the figure for `CCCCN1C=CC(=C2C(=O)c3ccccc3C2=O)C=C1` is 3.98 µM [falling, full curve].
For `CC(CNC(=O)CCn1ccc2cc(S(=O)(=O)N3CCCC3)ccc21)c1ccccc1` (configuration not stated), the AC50 under setting [1] is 5.01 µM [falling, single point].
In the case of `CCN(c1ccccc1)S(=O)(=O)c1ccc(C(=O)Nc2nccs2)cc1`, the AC50 under setting [1] was 5.8 µM [falling, partial curve] and the AC50 under setting [2] was 4.61 µM [rising, partial curve, poor fit].
In the case of `CC(C)(C)NC(=O)Nc1ccc(Br)cc1`, the AC50 under setting [1] was 1 µM [rising, full curve, poor fit].
On the same count and under the same terms, under `CC(C)CC(=O)N=Nc1c(O)[nH]c2ccccc12` stands 28.2 µM [falling, single point]; under `COc1ccc(C(=O)Nc2ccccn2)cc1S(=O)(=O)N1CCOCC1`, 1.41 µM [falling, full curve, poor fit].
On the same count and under the same terms, under `O=C(O)c1cc(/C=N\O)ccc1OCc1ccccc1` stands 5.17 µM [falling, full curve].
Regarding `COc1ccc(Nc2nc(N)nc(CSc3nc(C)cc(C)n3)n2)cc1`, under setting [1], the AC50 was 11.2 µM [rising, partial curve].
For `O=C(CSCc1ccc(Cl)cc1Cl)Nc1nccs1`, the AC50 under setting [1] was 5.8 µM [rising, partial curve].
Same read-out and setting: under `Nc1nc(NC(=O)c2ccc(F)cc2)ns1` stands 9.2 µM [falling, partial curve, poor fit]; under `C[C@H]1CN([C@@H](C)CO)C(=O)c2cccc(NS(=O)(=O)c3ccc(F)cc3)c2O[C@H]1CN(C)Cc1ccc(Cl)c(Cl)c1`, 29.1 µM [falling, single point]; under `O=C(Nc1cccc(Cl)c1)N(CCN1CCOCC1)Cc1ccccc1F`, 4.11 µM [rising, full curve, poor fit].
Same read-out and setting: under `CC1=CC(C)(C)Nc2ccc(OC(=O)CN3C(=O)C4CCCCC4C3=O)cc21` (configuration not stated) stands 18.4 µM [falling, partial curve, poor fit]; under `O=C(COC(=O)CNC(=O)C1CCCCC1)Nc1ccccc1OC(F)F`, 23.1 µM [rising, single point].
On the same count and under the same terms, the figure for `Cc1ccc(C(=O)N/C(=C\c2ccco2)C(=O)N2CC(C)OC(C)C2)cc1C` (configuration not stated) is 1.12 µM [rising, partial curve, poor fit]; for `COc1ccc(CCN(C)CCC(=O)Nc2cc(C)ccc2C)cc1OC` it is 0.282 µM [rising, full curve, poor fit].
As to `COc1cc2c(cc1OC)CN(C(=O)c1ccc(S(=O)(=O)N3CCCCCC3)cc1)CC2`, the AC50 under setting [1] is 5.17 µM [rising, full curve, poor fit].
`O=C(COC(=O)c1cccnc1Cl)Nc1ccc(N2CCCCC2)cc1`: the AC50 under setting [1] is 0.164 µM [rising, full curve, poor fit].
As for `O=S(=O)(Nc1ccc(-c2ccc(N3CCOCC3)nn2)cc1)c1cc(Cl)ccc1Cl`, under setting [2], the AC50 is 16.4 µM [rising, partial curve, poor fit].
Turning to `CC(=NNC(=O)CSc1nc2ccccc2o1)c1ccco1`, the AC50 under setting [1] is 5.8 µM [falling, partial curve, poor fit].
Still for that read-out and setting: under `Cn1cccc1C(=O)Nc1ccc(N2CCOCC2)cc1` stands 7.31 µM [falling, partial curve]; under `COc1cc(NC(=O)c2ccccc2)cc(OC)c1`, 4.47 µM [falling, full curve, poor fit].
Still for that read-out and setting: under `CCOC(=O)N1CCN(C(=O)CN(c2ccccc2OC)S(=O)(=O)c2ccc(OC)cc2)CC1` stands 7.94 µM [falling, partial curve, poor fit].
Same read-out and setting: the figure for `Clc1cccc(Oc2cnc3ccccc3n2)c1` is 15.8 µM [rising, single point]; for `COc1ccccc1NC(=O)N(CCN1CCOCC1)Cc1cc2cc(C)cc(C)c2[nH]c1=O` it is 22.4 µM [rising, partial curve, poor fit]; for `Cc1ccc(N2C(N)=C(C#N)C(c3cccnc3)C3=C2CC(C)(C)CC3=O)cc1` (configuration not stated) it is 0.92 µM [rising, partial curve, poor fit].
Regarding `C/C(=N\NS(=O)(=O)c1ccc(Br)cc1)c1ccc2c(c1)OCO2`, the AC50 under setting [1] was 12.6 µM [falling, single point].
For `Cc1ccc(S(=O)(=O)N(C)C)cc1NC(=O)COC(=O)c1ccc2ccccc2n1`, the AC50 under setting [1] was 16.4 µM [rising, partial curve, poor fit].
Same read-out and setting: under `COc1cc([N+](=O)[O-])ccc1NC(=O)COC(=O)c1ccc(NC(N)=O)cc1` stands 35.5 µM [falling, single point]; under `O=C(O)C1SCCN1S(=O)(=O)c1ccc(N=NN2CCOCC2)cc1` (configuration not stated), 3.16 µM [rising, single point].
With `COc1ccc(NC(=O)C(Cl)=C(Cl)Cl)cn1`, under setting [1], the concentration at half-maximal activity (AC50) was 2.82 µM [falling, partial curve].
`Cc1ccc(NC(=O)Cn2cnc3c(NCc4ccccc4)ncnc32)cc1C`: the AC50 under setting [1] was 25.9 µM [rising, single point].
Still for that read-out and setting: under `CC1CCN(C(=O)CSc2nc3cccnc3n2C)CC1` stands 2.82 µM [falling, full curve, poor fit]; under `CCN1CCN(C(c2cc(OC)ccc2OC)c2nnnn2Cc2ccccc2)CC1` (configuration not stated), 12.6 µM [falling, partial curve, poor fit].
For the compound `CC(=O)Nc1cccc(NC(=O)c2cccc(-c3ccc(O)cc3)c2)c1`, the AC50 under setting [1] is 0.708 µM [falling, full curve, poor fit].
Turning to `COc1ccc(-c2nsc(SCC(=O)Nc3ccc4c(c3)OCO4)n2)cc1`, the AC50 under setting [1] was 23.1 µM [falling, single point].
On the same count and under the same terms, the figure for `COc1ccc(/C=N/n2c(COc3ccccc3)n[nH]c2=S)cc1OC` is 6.31 µM [rising, full curve, poor fit]; for `Cc1ccc(CNc2ccc(N3C(=O)CCCC3=O)cc2[N+](=O)[O-])cc1` it is 8.2 µM [rising, partial curve, poor fit]; for `COc1ccc(C(=O)OCC(N)=O)cc1[N+](=O)[O-]` it is 9.2 µM [rising, partial curve, poor fit].
On the same count and under the same terms, under `CC(C)(C)OC(=O)NCCCCCNC(=O)c1nc[nH]c1C(=O)NCc1ccc(CNC(=O)OC(C)(C)C)cc1` stands 29.1 µM [falling, single point].
The same measure, in the same setting: the figure for `CC(=O)NC1(C(F)(F)F)C(=O)Nc2c1c(=O)[nH]c(=O)n2-c1ccccc1` (configuration not stated) is 25.1 µM [rising, partial curve, poor fit].
As for `CC(=O)Oc1ccc2c(=O)oc(-c3ccccc3C)nc2c1`, under setting [1], the AC50 is 12.6 µM [falling, partial curve, poor fit].
On to `CCOc1cc2c3c(c1)C1(C(=O)N3C(C)(C)C=C2C)C(C#N)=C(N)Oc2cc(O)ccc21` (configuration not stated), for which, under setting [1], the AC50 is 35.5 µM [falling, partial curve, poor fit].
The same measure, in the same setting: the figure for `CCN1C(=O)c2cccc3c(S(=O)(=O)NCC4CCCO4)ccc1c23` (configuration not stated) is 11.2 µM [rising, single point].
Consider `Cc1ccc(S(=O)(=O)CCC(=O)c2cccc([N+](=O)[O-])c2)cc1`, for which the AC50 under setting [1] was 11.2 µM [falling, partial curve] and the concentration at half-maximal activity (AC50) under setting [2] is 6.31 µM [falling, single point].
`CCCn1c(=NC(=O)CS(=O)(=O)c2ccccc2)sc2cc(S(C)(=O)=O)ccc21`: under setting [1], the half-maximal activity concentration (AC50) is 32.6 µM [falling, single point].
On to `COc1ccc2cc(CN(CC3CCCO3)C(=S)Nc3ccccc3)c(=O)[nH]c2c1` (configuration not stated), for which the concentration at half-maximal activity (AC50) reads like this: under setting [1], 10 µM [falling, partial curve, poor fit]; under setting [2], 11.2 µM [rising, single point].
Turning to `CC(=O)NNC(=O)c1[nH]c2ccc(Br)cc2c1-c1ccccc1`, the AC50 under setting [1] was 35.5 µM [falling, single point].
With `CC(C)c1ccc(C(=O)NCCCN(C)C)cc1`, under setting [1], the AC50 was 4.11 µM [rising, partial curve, poor fit].
Same read-out and setting: under `COc1ccc(NC(=O)CCC(=O)OCc2ccc(Br)cc2)cc1` stands 2.91 µM [rising, full curve].
On the same count and under the same terms, the figure for `N#Cc1c2c(c(-c3ccccc3)[nH]c1=O)CCCC2` is 31.6 µM [rising, single point].
For the compound `CS/C(N)=N/N=C/c1cc(Br)cc(Br)c1O`, the AC50 under setting [2] was 2.24 µM [falling, partial curve, poor fit].
As to `COc1cc(-c2noc(CCC(N)=O)n2)cc(OC)c1OC`, the AC50 under setting [1] is 35.5 µM [rising, partial curve, poor fit].
With `Cc1ccc(C(=O)O/N=C(\N)c2cccc([N+](=O)[O-])c2)cc1`, the AC50 under setting [1] was 5.62 µM [falling, single point].
In the case of `COc1ccccc1/C=C/C=N/NC(=O)c1ccncc1`, under setting [1], the AC50 was 23.1 µM [falling, partial curve].
Turning to `COc1ccccc1N1CCN(C2CCCN(C(=O)c3snnc3C)C2)CC1` (configuration not stated), the AC50 under setting [1] is 8.91 µM [rising, partial curve, poor fit].
`Nc1c(-c2cccc([N+](=O)[O-])c2)nc2ccccn12`: under setting [1], the AC50 was 9.2 µM [rising, partial curve, poor fit].
Turning to `N#CC1=C(N)C(C#N)(C#N)[C@H](c2cccnc2)[C@H]2CN(C(=O)OCc3ccccc3)CC=C12`, the concentration at half-maximal activity (AC50) under setting [1] is 29.1 µM [falling, single point] and the AC50 under setting [2] is 20.6 µM [falling, partial curve].
As to `O=c1oc2ccccc2c(O)c1/C=C1\C=Nc2ccccc21`, under setting [1], the AC50 was 1.12 µM [falling, full curve].
Consider `O=C(NCC1CC1)c1onc(CSc2nc3ccccc3[nH]2)c1C(=O)NCC1CC1`, for which the AC50 reads like this: under setting [1], 3.16 µM [falling, single point]; under setting [2], 11.2 µM [rising, partial curve, poor fit].
